Results reported in patent publication US20130123349A1.
Results are given in words; binding and its absence hold for the method and conditions named. Some binding calls cover weakened binding; strength is not graded here.

By UniProt entry, the sequences of proteins in these tests, tags left out. Residues count along the entry.
UniProt Q9HCN6, residues 21-267: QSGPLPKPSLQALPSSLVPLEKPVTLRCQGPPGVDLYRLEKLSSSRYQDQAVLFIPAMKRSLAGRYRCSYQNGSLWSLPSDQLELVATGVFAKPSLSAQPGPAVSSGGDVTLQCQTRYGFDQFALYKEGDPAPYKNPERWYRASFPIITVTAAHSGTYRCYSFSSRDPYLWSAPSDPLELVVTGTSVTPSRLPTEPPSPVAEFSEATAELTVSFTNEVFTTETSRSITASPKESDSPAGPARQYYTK

How the values were obtained:
recombinant GPVI [1] = target: recombinant GPVI (UniProt Q9HCN6); experiment: SPR, convulxin injected over immobilized GPVI
recombinant GPVI [2] = target: recombinant GPVI (UniProt Q9HCN6); experiment: SPR, convulxin (2.5, 5, 10 nM) over immobilized GPVI
recombinant GPVI [3] = target: recombinant GPVI (UniProt Q9HCN6); experiment: SPR, convulxin mixed with 500 nM Aegyptin and injected over immobilized GPVI

Measured: binding

B1: convulxin (ligand)
chain 1: GLHCPSDWYYYDQHCYRIFNEEMNWEDAEWFCTKQAKGAHLVSIKSAKEADFVAWMVTQNIEESFSHVSIGLRVQNKEKQCSTKWSDGSSVSYDNLLDLYITKCSLLKKETGFRKWFVASCIGKIPFVCKFPPQC
chain 2: GFCCPSHWSSYDRYCYKVFKQEMTWADAEKFCTQQHTGSHLVSFHSTEEVDFVVKMTHQSLKSTFFWIGANNIWNKCNWQWSDGTKPEYKEWHEEFECLISRTFDNQWLSAPCSDTYSFVCKFEA
binds: all assays above
